PubChem BioAssay AID743454 – Peter MacCallum Cancer Centre | 2014
The deposit covers about 18,000 reagents; this is a random part of them. Of all reagents, 450 (2.5%) were called active. 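Single biological run; no consistent viability z cut-off exists, so the class columns, not z-scores, define the calls.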 Unmarked entries are inactive.

Purpose: 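Genes whose loss kills vorinostat-resistant colon cancer cells under vorinostat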 (primary screen)
Cell system: human HCT116-VR colon cancer cells, selected for vorinostat resistance
Reagents: siRNA pool against human genes, 40 nM siRNA pool
Time to read-out: vorinostat for 24 h, read-out about 72 h after transfection
Treatment: vorinostat at 2.5 µM final
Read-out: 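Cell viability by CellTiter-Fluor and caspase 3/7 activity by luminescence, each scaled to mock wells per plate, duplicates averaged, then robust z-scored over all plates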
Scale: viability robust z-score: higher = more viable cells than screen typical; caspase robust z-score: higher = more caspase 3/7 activity than screen typical
Call rule: 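Hits are knock-downs in viability class RV1/RV2 or caspase class CA1/CA2, excluding ones that killed cells in the no-drug cell-count arm; hits then retested with single siRNAs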

| target gene | viability hit class | caspase hit class | viability robust z-score | caspase robust z-score |
| --- | --- | --- | --- | --- |
| CRIP2 | no change | no change | 1.38 | 0.67 |
| FGF13 | no change | no change | -0.04 | -0.57 |
| PPP2R5E | no change | no change | 0.13 | 0.78 |
| COL11A2 | no change (active) | CA2 (caspase activation) | -1.83 | 5.52 |
| CCDC136 | no change | no change | -2.69 | -1.13 |
| CBARP | no change | no change | -0.14 | 0.88 |
| SLAIN1 | no change | no change | -0.66 | -0.1 |
| MYBPHL | no change | no change | -1.24 | 4.04 |
| GNAQ | no change | no change | 0.18 | 3.18 |
| SLC38A3 | no change | no change | -1.54 | 3.61 |
| SLC6A18 | no change | no change | -1.32 | 0.17 |
| FRMPD2 | no change | no change | 0.42 | -0.66 |
| SH3TC2 | no change | no change | 0.41 | 1.82 |
| NDUFA9 | no change | no change | 1.92 | -1.16 |
| MAMDC2 | no change | no change | 0.77 | -0.26 |
| SLC26A11 | no change | no change | -3.21 | 2.42 |
| ARR3 | no change | no change | 1.17 | -0.13 |
| SPARC | no change | no change | 1.09 | -0.76 |
| DRD3 | no change | no change | -0.49 | -0.28 |
| PRKX | no change | no change | -0.32 | -0.98 |
| CST9 | no change | no change | 1.23 | 0.04 |
| SENP8 | no change | no change | 1.13 | -0.93 |
| DAAM1 | no change | no change | -0.36 | 2.34 |
| FAM135B | no change | no change | -0.12 | 1.88 |
| MGMT | no change | no change | -0.43 | -0.89 |
| CXCR3 | no change | no change | -0.29 | 0.52 |
| ZDHHC2 | no change | no change | 0.27 | 1.06 |
| PDE8B | no change | no change | -1.43 | 2.62 |
| G3BP1 | no change | no change | 1.92 | -0.32 |
| DSPP | no change | no change | -2.46 | 2.27 |
| FBXO6 | no change | no change | -1.25 | 2.58 |
| SLFN12 | no change | no change | 0.24 | 1.13 |
| LYZL2 | no change | no change | 0.38 | -0.5 |
| TSPOAP1 | no change | no change | -0.73 | 2.21 |
| LAMA1 | no change | no change | 0.2 | -1.06 |
| PKDREJ | no change | no change | 0.32 | -0.47 |
| SUN5 | no change | no change | -0.19 | 2.16 |
| KLHL20 | no change | no change | 1.09 | 0.06 |
| LINC02694 | no change | no change | 0.85 | -0.77 |
